The supplement of paper PMC10032668
This is one part of the list. Only hits are listed; about a third recur on repeated control peptides.

Sequences of proteins named here, by UniProt entry; tags and fusion partners are left off.
CDC27, P30260, UniProt P30260, whole entry: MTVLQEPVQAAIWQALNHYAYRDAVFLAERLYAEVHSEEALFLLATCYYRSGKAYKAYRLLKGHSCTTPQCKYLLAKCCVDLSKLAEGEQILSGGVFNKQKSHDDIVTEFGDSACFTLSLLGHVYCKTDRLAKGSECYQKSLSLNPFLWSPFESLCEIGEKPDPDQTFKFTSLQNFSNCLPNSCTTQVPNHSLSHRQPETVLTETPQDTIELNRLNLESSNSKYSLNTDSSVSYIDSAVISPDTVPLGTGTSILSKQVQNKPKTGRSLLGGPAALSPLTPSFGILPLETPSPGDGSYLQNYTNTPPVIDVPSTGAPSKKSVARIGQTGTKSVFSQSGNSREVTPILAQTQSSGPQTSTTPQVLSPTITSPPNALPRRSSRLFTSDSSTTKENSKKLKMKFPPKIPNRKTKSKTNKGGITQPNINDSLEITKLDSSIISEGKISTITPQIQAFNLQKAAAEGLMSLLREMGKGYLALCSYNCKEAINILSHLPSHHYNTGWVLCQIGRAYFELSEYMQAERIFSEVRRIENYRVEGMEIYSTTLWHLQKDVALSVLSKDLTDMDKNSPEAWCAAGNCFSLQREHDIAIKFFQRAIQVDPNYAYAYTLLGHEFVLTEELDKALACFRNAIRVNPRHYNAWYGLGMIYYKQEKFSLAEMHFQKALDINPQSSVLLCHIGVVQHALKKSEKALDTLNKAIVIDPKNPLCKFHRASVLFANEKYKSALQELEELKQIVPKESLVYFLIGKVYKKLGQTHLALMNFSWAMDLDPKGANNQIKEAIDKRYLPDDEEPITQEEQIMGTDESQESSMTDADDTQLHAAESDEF
LARP4, Q71RC2, UniProt Q71RC2, whole entry: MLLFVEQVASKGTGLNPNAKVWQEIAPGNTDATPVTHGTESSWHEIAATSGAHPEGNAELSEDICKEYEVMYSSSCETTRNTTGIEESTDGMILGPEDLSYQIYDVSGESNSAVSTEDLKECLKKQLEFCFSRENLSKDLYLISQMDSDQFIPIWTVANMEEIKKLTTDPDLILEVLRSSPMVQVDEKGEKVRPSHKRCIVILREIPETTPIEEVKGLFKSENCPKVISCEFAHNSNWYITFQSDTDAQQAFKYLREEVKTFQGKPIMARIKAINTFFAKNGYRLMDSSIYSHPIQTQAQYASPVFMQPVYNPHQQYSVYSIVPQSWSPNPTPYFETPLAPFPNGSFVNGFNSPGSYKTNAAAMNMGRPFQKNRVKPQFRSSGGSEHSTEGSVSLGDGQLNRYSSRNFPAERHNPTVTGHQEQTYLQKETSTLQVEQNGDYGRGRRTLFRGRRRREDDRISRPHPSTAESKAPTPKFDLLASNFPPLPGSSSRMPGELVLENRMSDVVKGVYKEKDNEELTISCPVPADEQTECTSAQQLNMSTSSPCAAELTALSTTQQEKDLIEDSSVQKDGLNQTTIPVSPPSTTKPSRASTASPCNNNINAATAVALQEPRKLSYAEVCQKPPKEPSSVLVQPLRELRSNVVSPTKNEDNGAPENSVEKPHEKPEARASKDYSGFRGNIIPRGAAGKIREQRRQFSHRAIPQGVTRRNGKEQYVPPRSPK
NDUFS7, O75251, UniProt O75251, whole entry: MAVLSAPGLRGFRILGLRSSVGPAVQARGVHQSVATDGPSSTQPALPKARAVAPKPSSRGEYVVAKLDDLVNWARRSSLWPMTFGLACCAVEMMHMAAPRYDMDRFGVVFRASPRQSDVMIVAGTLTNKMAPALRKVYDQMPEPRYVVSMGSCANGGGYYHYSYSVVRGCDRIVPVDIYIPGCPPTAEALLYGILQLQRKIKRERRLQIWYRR
PFN1, P07737, UniProt P07737, whole entry: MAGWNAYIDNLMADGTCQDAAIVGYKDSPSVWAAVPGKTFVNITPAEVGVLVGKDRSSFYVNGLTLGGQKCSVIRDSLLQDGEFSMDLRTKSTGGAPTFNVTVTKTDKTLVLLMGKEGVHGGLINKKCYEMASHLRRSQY
PSMC5, P62195, UniProt P62195, whole entry: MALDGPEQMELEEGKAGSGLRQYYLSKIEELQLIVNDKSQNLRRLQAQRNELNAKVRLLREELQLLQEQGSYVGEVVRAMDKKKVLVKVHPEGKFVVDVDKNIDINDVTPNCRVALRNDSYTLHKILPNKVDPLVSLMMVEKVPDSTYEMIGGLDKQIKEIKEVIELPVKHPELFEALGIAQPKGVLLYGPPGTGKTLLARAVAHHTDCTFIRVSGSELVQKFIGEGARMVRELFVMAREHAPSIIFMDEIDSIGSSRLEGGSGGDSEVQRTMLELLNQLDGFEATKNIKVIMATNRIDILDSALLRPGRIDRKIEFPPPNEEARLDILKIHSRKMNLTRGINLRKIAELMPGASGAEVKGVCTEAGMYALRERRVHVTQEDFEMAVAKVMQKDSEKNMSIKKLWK
SF3B1, O75533, UniProt O75533, whole entry: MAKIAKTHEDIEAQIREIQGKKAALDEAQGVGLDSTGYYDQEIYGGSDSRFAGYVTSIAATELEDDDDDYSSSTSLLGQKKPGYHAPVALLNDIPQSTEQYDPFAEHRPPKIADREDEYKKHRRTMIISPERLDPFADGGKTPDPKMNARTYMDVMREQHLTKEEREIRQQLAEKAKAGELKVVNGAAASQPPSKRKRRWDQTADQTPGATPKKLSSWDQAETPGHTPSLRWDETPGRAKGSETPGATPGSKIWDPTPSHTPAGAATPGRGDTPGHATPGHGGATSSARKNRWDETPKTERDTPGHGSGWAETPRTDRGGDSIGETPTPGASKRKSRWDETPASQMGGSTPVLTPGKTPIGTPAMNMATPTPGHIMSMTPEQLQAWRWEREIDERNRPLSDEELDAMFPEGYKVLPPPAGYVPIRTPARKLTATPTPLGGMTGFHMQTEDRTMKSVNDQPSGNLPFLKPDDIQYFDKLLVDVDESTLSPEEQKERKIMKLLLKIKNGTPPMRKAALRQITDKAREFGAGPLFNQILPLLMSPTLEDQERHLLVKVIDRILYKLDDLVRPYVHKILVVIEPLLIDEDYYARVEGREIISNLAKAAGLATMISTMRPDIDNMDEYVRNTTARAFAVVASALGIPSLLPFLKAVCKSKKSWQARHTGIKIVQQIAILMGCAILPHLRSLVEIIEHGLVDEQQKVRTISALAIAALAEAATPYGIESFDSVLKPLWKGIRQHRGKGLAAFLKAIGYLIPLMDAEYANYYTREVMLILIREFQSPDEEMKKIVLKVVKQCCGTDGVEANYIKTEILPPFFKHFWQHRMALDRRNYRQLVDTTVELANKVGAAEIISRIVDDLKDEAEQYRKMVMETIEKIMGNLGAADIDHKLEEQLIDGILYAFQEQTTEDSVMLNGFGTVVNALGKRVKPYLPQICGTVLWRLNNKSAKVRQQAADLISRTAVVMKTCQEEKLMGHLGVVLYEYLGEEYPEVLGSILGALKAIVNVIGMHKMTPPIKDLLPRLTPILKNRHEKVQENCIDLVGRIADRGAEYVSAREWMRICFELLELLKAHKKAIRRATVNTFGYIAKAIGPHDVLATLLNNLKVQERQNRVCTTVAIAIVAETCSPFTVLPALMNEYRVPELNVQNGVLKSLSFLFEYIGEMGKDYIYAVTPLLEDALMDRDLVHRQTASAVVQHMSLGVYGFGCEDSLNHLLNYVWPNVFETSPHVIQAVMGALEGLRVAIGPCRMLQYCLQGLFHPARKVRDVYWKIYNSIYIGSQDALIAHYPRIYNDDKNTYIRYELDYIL

Assays:
Experiment in all cases: PRISMA enrichment of interactor (LFQ) in peptide spot vs all other peptide spots (log2 fold change); higher = stronger / more specific binding of the interactor to the peptide
AGK, Q53H12 = target: AGK, Q53H12
Procedure: (§1)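 PRISMA: 15-aa overlapping tiles (offset 8 aa) of 60 microproteins, plus SOS1/GLUT1 control peptides, were spot-synthesized on cellulose membranes in triplicate. Membranes were incubated with benzonase-treated HEK293T lysate, and bound proteins were identified by LC-MS/MS with LFQ. Enrichment is the log2 fold change of each protein in one spot versus all other spots. Only interactors passing the significance cutoff are listed.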

BZW1, Q7L1Q6 = target: BZW1, Q7L1Q6
Procedure: as §1

CDC27, P30260 = target: CDC27, P30260
Procedure: as §1

CERS2, Q96G23 = target: CERS2, Q96G23
Procedure: as §1

CLNS1A, P54105 = target: CLNS1A, P54105
Procedure: as §1

CTPS1, P17812 = target: CTPS1, P17812
Procedure: as §1

DCUN1D5, Q9BTE7 = target: DCUN1D5, Q9BTE7
Procedure: as §1

DDX18, Q9NVP1 = target: DDX18, Q9NVP1
Procedure: as §1

DDX46, Q7L014 = target: DDX46, Q7L014
Procedure: as §1

DHX57, Q6P158 = target: DHX57, Q6P158
Procedure: as §1

DIMT1, Q9UNQ2 = target: DIMT1, Q9UNQ2
Procedure: as §1

EIF6, P56537 = target: EIF6, P56537
Procedure: as §1

FHL1, Q13642 = target: FHL1, Q13642
Procedure: as §1

FLOT1, O75955 = target: FLOT1, O75955
Procedure: as §1

FLYWCH2, Q96CP2 = target: FLYWCH2, Q96CP2
Procedure: as §1

GART, P22102 = target: GART, P22102
Procedure: as §1

GOLIM4, O00461 = target: GOLIM4, O00461
Procedure: as §1

GSK3B, P49841 = target: GSK3B, P49841
Procedure: as §1

HIRIP3, Q9BW71 = target: HIRIP3, Q9BW71
Procedure: as §1

HP1BP3, Q5SSJ5 = target: HP1BP3, Q5SSJ5
Procedure: as §1

IKBIP, Q70UQ0 = target: IKBIP, Q70UQ0
Procedure: as §1

KIF22, Q14807 = target: KIF22, Q14807
Procedure: as §1

KPNA6, O60684 = target: KPNA6, O60684
Procedure: as §1

LARP4, Q71RC2 = target: LARP4, Q71RC2
Procedure: as §1

LARS, Q9P2J5 = target: LARS, Q9P2J5
Procedure: as §1

MCM10, Q7L590 = target: MCM10, Q7L590
Procedure: as §1

MLEC, Q14165 = target: MLEC, Q14165
Procedure: as §1

MRPL41, Q8IXM3 = target: MRPL41, Q8IXM3
Procedure: as §1

NDUFS7, O75251 = target: NDUFS7, O75251
Procedure: as §1

NUP205, Q92621 = target: NUP205, Q92621
Procedure: as §1

PFKP, Q01813 = target: PFKP, Q01813
Procedure: as §1

PFN1, P07737 = target: PFN1, P07737
Procedure: as §1

POLDIP3, Q9BY77 = target: POLDIP3, Q9BY77
Procedure: as §1

PRDX3, P30048 = target: PRDX3, P30048
Procedure: as §1

PRMT1, Q99873 = target: PRMT1, Q99873
Procedure: as §1

PRPS1, P60891 = target: PRPS1, P60891
Procedure: as §1

PSAT1, Q9Y617 = target: PSAT1, Q9Y617
Procedure: as §1

PSIP1, O75475 = target: PSIP1, O75475
Procedure: as §1

PSMA1, P25786 = target: PSMA1, P25786
Procedure: as §1

PSMC5, P62195 = target: PSMC5, P62195
Procedure: as §1

PSMD4, P55036 = target: PSMD4, P55036
Procedure: as §1

PUSL1, Q8N0Z8 = target: PUSL1, Q8N0Z8
Procedure: as §1

RAB2A, P61019 = target: RAB2A, P61019
Procedure: as §1

RPP30, P78346 = target: RPP30, P78346
Procedure: as §1

SAAL1, Q96ER3 = target: SAAL1, Q96ER3
Procedure: as §1

SART1, O43290 = target: SART1, O43290
Procedure: as §1

SDF2L1, Q9HCN8 = target: SDF2L1, Q9HCN8
Procedure: as §1

SEC63, Q9UGP8 = target: SEC63, Q9UGP8
Procedure: as §1

SF3B1, O75533 = target: SF3B1, O75533
Procedure: as §1

SLU7, O95391 = target: SLU7, O95391
Procedure: as §1

SPTLC1, O15269 = target: SPTLC1, O15269
Procedure: as §1

TEX264, Q9Y6I9 = target: TEX264, Q9Y6I9
Procedure: as §1

TRIP12, Q14669 = target: TRIP12, Q14669
Procedure: as §1

UBAP2, Q5T6F2 = target: UBAP2, Q5T6F2
Procedure: as §1

UBTF, P17480 = target: UBTF, P17480
Procedure: as §1

ZNF703, Q9H7S9 = target: ZNF703, Q9H7S9
Procedure: as §1

VSLLHQAEVLGDEKH [PSMB8-AS1]
PRISMA enrichment of interactor (log2) (AGK, Q53H12): 4.85
PRISMA enrichment of interactor (log2) (BZW1, Q7L1Q6): 5.33
PRISMA enrichment of interactor (log2) (CDC27, P30260): 9.23
PRISMA enrichment of interactor (log2) (CERS2, Q96G23): 6.83
PRISMA enrichment of interactor (log2) (CLNS1A, P54105): 5.68
PRISMA enrichment of interactor (log2) (CTPS1, P17812): 6.52
PRISMA enrichment of interactor (log2) (DCUN1D5, Q9BTE7): 6.28
PRISMA enrichment of interactor (log2) (DDX18, Q9NVP1): 6.45
PRISMA enrichment of interactor (log2) (DDX46, Q7L014): 8.25
PRISMA enrichment of interactor (log2) (DHX57, Q6P158): 5.66
PRISMA enrichment of interactor (log2) (DIMT1, Q9UNQ2): 4.88
PRISMA enrichment of interactor (log2) (EIF6, P56537): 4.84
PRISMA enrichment of interactor (log2) (FHL1, Q13642): 5.73
PRISMA enrichment of interactor (log2) (FLOT1, O75955): 9.7
PRISMA enrichment of interactor (log2) (FLYWCH2, Q96CP2): 4.74
PRISMA enrichment of interactor (log2) (GART, P22102): 7.23
PRISMA enrichment of interactor (log2) (GOLIM4, O00461): 5.42
PRISMA enrichment of interactor (log2) (GSK3B, P49841): 6.1
PRISMA enrichment of interactor (log2) (HIRIP3, Q9BW71): 6.18
PRISMA enrichment of interactor (log2) (HP1BP3, Q5SSJ5): 6.5
PRISMA enrichment of interactor (log2) (IKBIP, Q70UQ0): 5.37
PRISMA enrichment of interactor (log2) (KIF22, Q14807): 4.7
PRISMA enrichment of interactor (log2) (KPNA6, O60684): 9.85
PRISMA enrichment of interactor (log2) (LARP4, Q71RC2): 4.8
PRISMA enrichment of interactor (log2) (LARS, Q9P2J5): 5.13
PRISMA enrichment of interactor (log2) (MCM10, Q7L590): 4.31
PRISMA enrichment of interactor (log2) (MLEC, Q14165): 7.3
PRISMA enrichment of interactor (log2) (MRPL41, Q8IXM3): 4.75
PRISMA enrichment of interactor (log2) (NDUFS7, O75251): 5.39
PRISMA enrichment of interactor (log2) (NUP205, Q92621): 5.49
PRISMA enrichment of interactor (log2) (PFKP, Q01813): 9.14
PRISMA enrichment of interactor (log2) (PFN1, P07737): 11.5
PRISMA enrichment of interactor (log2) (POLDIP3, Q9BY77): 5.53
PRISMA enrichment of interactor (log2) (PRDX3, P30048): 5.46
PRISMA enrichment of interactor (log2) (PRMT1, Q99873): 5.18
PRISMA enrichment of interactor (log2) (PRPS1, P60891): 6.08
PRISMA enrichment of interactor (log2) (PSAT1, Q9Y617): 5.36
PRISMA enrichment of interactor (log2) (PSIP1, O75475): 4.27
PRISMA enrichment of interactor (log2) (PSMA1, P25786): 7.69
PRISMA enrichment of interactor (log2) (PSMC5, P62195): 6.3
PRISMA enrichment of interactor (log2) (PSMD4, P55036): 6.13
PRISMA enrichment of interactor (log2) (PUSL1, Q8N0Z8): 4.62
PRISMA enrichment of interactor (log2) (RAB2A, P61019): 5.69
PRISMA enrichment of interactor (log2) (RPP30, P78346): 4.54
PRISMA enrichment of interactor (log2) (SAAL1, Q96ER3): 4.51
PRISMA enrichment of interactor (log2) (SART1, O43290): 5.55
PRISMA enrichment of interactor (log2) (SDF2L1, Q9HCN8): 5.62
PRISMA enrichment of interactor (log2) (SEC63, Q9UGP8): 6.04
PRISMA enrichment of interactor (log2) (SF3B1, O75533): 7.68
PRISMA enrichment of interactor (log2) (SLU7, O95391): 5.79
PRISMA enrichment of interactor (log2) (SPTLC1, O15269): 4.24
PRISMA enrichment of interactor (log2) (TEX264, Q9Y6I9): 5.57
PRISMA enrichment of interactor (log2) (TRIP12, Q14669): 4.9
PRISMA enrichment of interactor (log2) (UBAP2, Q5T6F2): 5.16
PRISMA enrichment of interactor (log2) (UBTF, P17480): 5.92
PRISMA enrichment of interactor (log2) (ZNF703, Q9H7S9): 6.59
